The target in assay [1] is T1, APPL1-NLuc (human) (UniProt Q9UKG1).
T1 sequence: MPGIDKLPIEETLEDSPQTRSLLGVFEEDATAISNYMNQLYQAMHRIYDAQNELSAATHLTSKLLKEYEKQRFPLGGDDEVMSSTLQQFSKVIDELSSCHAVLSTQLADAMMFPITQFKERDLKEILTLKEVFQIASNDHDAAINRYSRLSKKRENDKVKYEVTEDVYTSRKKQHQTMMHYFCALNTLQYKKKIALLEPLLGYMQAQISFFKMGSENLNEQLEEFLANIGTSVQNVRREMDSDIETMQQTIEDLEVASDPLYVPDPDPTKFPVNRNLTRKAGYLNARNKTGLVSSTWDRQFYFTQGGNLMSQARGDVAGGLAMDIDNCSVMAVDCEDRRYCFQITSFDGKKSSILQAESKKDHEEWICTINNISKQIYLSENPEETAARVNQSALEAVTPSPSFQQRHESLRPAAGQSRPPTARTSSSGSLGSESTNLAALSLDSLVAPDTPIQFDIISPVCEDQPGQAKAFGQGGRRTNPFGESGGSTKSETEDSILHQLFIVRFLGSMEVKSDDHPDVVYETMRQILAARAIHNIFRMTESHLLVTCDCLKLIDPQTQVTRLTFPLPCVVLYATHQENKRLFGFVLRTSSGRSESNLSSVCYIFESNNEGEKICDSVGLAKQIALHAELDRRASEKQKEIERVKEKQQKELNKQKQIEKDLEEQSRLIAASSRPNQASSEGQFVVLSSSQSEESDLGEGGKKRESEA
Kind of assay: split reporter; split firefly luciferase complementation from pESC-URA-CLuc-AdipoR1-APPL1-NLuc compared in BY4741 (parent) and its isogenic izh2Δ and sip3Δ strains; cells grown 16 h at 30°C at 1%, 1.5% and 2% galactose.

Assay [2] addresses T2, CLuc-IZH2 (S. cerevisiae) (UniProt Q12442).
T2 sequence: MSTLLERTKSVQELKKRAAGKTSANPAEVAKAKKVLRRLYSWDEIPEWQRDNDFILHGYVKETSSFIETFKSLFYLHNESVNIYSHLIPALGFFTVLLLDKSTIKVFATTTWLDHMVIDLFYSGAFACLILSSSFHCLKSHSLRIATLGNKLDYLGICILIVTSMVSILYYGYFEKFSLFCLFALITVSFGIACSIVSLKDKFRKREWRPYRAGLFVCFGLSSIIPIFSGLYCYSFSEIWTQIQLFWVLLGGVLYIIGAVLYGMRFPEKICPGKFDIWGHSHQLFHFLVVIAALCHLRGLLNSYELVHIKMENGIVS
Kind of assay: split reporter; split firefly luciferase complementation in BY4741 co-transformed with pESC-URA-CLuc-receptor (GAL1 promoter, galactose 0-2%) and p425GPD-APPL1-NLuc (constitutive GPD promoter); cells grown 16 h at 30°C.

The target in assay [3] is T3, CLuc-AdipoR1 (human) (UniProt Q96A54).
T3 sequence: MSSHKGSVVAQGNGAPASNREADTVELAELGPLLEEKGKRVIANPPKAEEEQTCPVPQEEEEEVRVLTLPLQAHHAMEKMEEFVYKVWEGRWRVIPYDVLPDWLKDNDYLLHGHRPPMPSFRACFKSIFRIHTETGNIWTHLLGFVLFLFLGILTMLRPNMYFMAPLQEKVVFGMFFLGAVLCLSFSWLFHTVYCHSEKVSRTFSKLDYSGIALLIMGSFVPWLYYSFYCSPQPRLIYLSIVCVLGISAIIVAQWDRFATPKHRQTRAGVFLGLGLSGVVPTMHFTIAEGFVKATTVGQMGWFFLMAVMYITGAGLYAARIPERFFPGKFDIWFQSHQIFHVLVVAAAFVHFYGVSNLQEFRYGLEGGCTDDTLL
Kind of assay: split reporter; split firefly luciferase complementation in S. cerevisiae BY4741; CLuc-AdipoR1 (GAL1) and APPL1-NLuc (GAL10) from one plasmid pESC-URA-CLuc-AdipoR1-APPL1-NLuc; galactose induced; colonies imaged with a CCD camera after D-luciferin, cell suspensions in 0.1 M Na citrate pH 3.0 with 1 mM D-luciferin read in a microplate reader; no ligand added.

Assay [4] deals with T3, CLuc-AdipoR1 (human). Kind of assay: split reporter; split firefly luciferase complementation from pESC-URA-CLuc-AdipoR1-APPL1-NLuc compared in BY4741 (parent) and its isogenic izh2Δ and sip3Δ strains; cells grown 16 h at 30°C at 1%, 1.5% and 2% galactose.

These are yes or no findings as the source states them, for the method shown. In cells and extracts the contact can be indirect. Some entries that bind do so weakly or less than the wild type. Where a sequence is shown, tags or fusion partners need not be part of it.

The record followed here is paper PMC3676391.

B1: Izh2p (receptor, UniProt Q12442 1-317)
chain: T2 sequence
As to B1, the binding entry in assay [1] is “binds”.

B2: APPL1-NLuc (protein, UniProt Q9UKG1 1-709)
chain: T1 sequence
On to B2, for which the binding result in assay [2], in assay [3] and in assay [4] was “binds” throughout.
